No constants are given. Whether binding was seen depends on the method and setting. In cells and extracts the contact can be indirect. Binding calls can cover weak binding; strength is not graded here. Sequences can lack the tags named with a protein.
B1: HA-PIF4N3 (N-terminal fragment of PIF4, amino acids 1-129) (domain or fragment, UniProt Q8W2F3 1-129)
chain: MEHQGWSFEENYSLSTNRRSIRPQDELVELLWRDGQVVLQSQTHREQTQTQKQDHHEEALRSSTFLEDQETVSWIQYPPDEDPFEPDDFSSHFFSTMDPLQRPTSETVKPKSSPEPPQVMVKPKACPDP
B2: HA-PIF4C2 (PIF4 lacking the N-terminal amino acids 1-129) (domain or fragment, UniProt Q8W2F3 130-430)
chain: PPQVMPPPKFRLTNSSSGIRETEMEQYSVTTVGPSHCGSNPSQNDLDVSMSHDRSKNIEEKLNPNASSSSGGSSGCSFGKDIKEMASGRCITTDRKRKRINHTDESVSLSDAIGNKSNQRSGSNRRSRAAEVHNLSERRRRDRINERMKALQELIPHCSKTDKASILDEAIDYLKSLQLQLQVMWMGSGMAAAAASAPMMFPGVQPQQFIRQIQSPVQLPRFPVMDQSAIQNNPGLVCQNPVQNQIISDRFARYIGGFPHMQAATQMQPMEMLRFSSPAGQQSQQPSSVPTKTTDGSRLDH

Sequences of proteins named here, by UniProt entry; tags and fusion partners are left off. A change or cut given only in a name is not applied to a line headed by its entry.
UniProt F4IHY7: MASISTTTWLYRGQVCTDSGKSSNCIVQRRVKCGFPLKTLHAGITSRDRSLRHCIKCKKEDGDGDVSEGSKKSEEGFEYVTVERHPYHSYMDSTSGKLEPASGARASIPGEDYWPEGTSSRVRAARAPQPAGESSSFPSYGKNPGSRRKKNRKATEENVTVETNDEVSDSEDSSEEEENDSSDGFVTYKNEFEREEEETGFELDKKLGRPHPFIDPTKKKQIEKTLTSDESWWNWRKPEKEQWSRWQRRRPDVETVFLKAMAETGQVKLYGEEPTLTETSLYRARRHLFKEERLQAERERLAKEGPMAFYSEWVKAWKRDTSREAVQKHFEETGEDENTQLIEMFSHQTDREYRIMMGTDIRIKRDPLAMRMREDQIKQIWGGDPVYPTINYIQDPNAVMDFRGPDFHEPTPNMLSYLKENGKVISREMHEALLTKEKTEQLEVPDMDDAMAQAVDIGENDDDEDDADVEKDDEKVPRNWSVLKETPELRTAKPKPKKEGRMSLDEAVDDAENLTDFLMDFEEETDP

Molecular target: GST-HMR (HEMERA, full-length coding sequence fused to glutathione S-transferase) (Arabidopsis) (UniProt F4IHY7)
Assay: pull-down; GST or GST-HMR immobilised on glutathione Sepharose beads; in vitro-translated HA-tagged preys (TNT reticulocyte lysate) diluted in E buffer (50 mM Tris-Cl pH 7.5, 100 mM NaCl, 1 mM EDTA, 1 mM EGTA, 1% DMSO, 2 mM DTT) with 0.1% Nonidet P-40, 4 °C, 2 h; preys detected by anti-HA …; only the target purified

Binder	binding
B1	binds
B2	no binding

Reference: article PMC6329817
